Assay results published in patent US11649222B2, “Compounds” (UNIVERSITETET I OSLO, priority 2016, dated 2023).

Assay: Therapeutic index and antibacterial score ASx
Conditions: for ASx: antibacterial score, equation (3); for TI = IC50h/MICx: therapeutic index ratio

## O=C(Cc1ccc(-n2cc(CN(Cc3ccccn3)Cc3ccccn3)nn2)cc1)NC(CO)(CO)CO [Example 98, 2-(4-(4-((bis(pyridin-2-ylmethyl)amino)methyl)-1H-1,2,3-triazol-1-yl)phenyl)-N-(1,3-dihydroxy-2-(hydroxymethyl)propan-2-yl)acetamide]
  ASx: 1.11
  TI = IC50h/MICx: 2.1

## O=C(O)CN(CCN(CC(=O)O)CC(=O)O)CC(=O)O [EDTA, ethylenediaminetetra-acetic acid, reference compound]
  ASx: −2.27

## C[C@H](CS)C(=O)N1CCC[C@H]1C(=O)O [Captopril, reference compound]
  ASx: −9.14

## O=C(Cc1ccc(NC(=O)c2ccc(CN(Cc3ccccn3)Cc3ccccn3)nc2)cc1)NC(CO)(CO)CO [Example 100, 6-((bis(pyridin-2-ylmethyl)amino)methyl)-N-(4-(2-(1,3-dihydroxy-2-(hydroxymethyl)propan-2-ylamino)-2-oxoethyl)phenyl)nicotinamide]
  ASx: 1.44
  TI = IC50h/MICx: 3.8

## c1ccc(CN(CCN(Cc2ccccn2)Cc2ccccn2)Cc2ccccn2)nc1 [TPEN, N,N,N′,N′-tetrakis(2-pyridylmethyl) ethylenediamine, reference compound]
  ASx: −0.75
  TI = IC50h/MICx: 0.5

## CN(C[C@H](O)[C@@H](O)[C@H](O)[C@H](O)CO)C(=O)Cc1ccc(-n2cc(CN(Cc3ccccn3)Cc3ccccn3)nn2)cc1 [Example 96, 2-(4-(4-((bis(pyridin-2-ylmethyl)amino)methyl)-1H-1,2,3-triazol-1-yl)phenyl)-N-methyl-N-((2S,3R,4R,5R)-2,3,4,5,6-pentahydroxyhexyl)acetamide]
  ASx: 0.81
  TI = IC50h/MICx: 0.9

## O=C(O)CN1CCN(CC(=O)O)CCN([C@H](CO)[C@H](O)CO)CCN(CC(=O)O)CC1 [Butrol, reference compound]
  ASx: −1.36
  TI = IC50h/MICx: 1.2

## CN(C[C@H](O)[C@@H](O)[C@H](O)[C@H](O)CO)C(=O)Cc1ccc(NC(=O)CN(CCN(Cc2ccccn2)Cc2ccccn2)Cc2ccccn2)cc1 [Example 25, 2-(4-(2-((2-(bis(pyridin-2-ylmethyl)amino)ethyl)(pyridin-2-ylmethyl)amino)acetamido)phenyl)-N-methyl-N-(2,3,4,5,6-pentahydroxyhexyl)acetamide]
  ASx: 1.43
  TI = IC50h/MICx: 3.7

## OC[C@H]1OC(O)[C@H](n2cc(CN(Cc3ccccn3)Cc3ccccn3)nn2)[C@@H](O)[C@@H]1O (stereo partly drawn) [Example 84, (3R,4R,5S,6R)-3-(4-((bis(pyridin-2-ylmethyl)amino)methyl)-1H-1,2,3-triazol-1-yl)-6-(hydroxymethyl)tetrahydro-2H-pyran-2,4,5-triol]
  ASx: 0.82
  TI = IC50h/MICx: 0.5

## O=C(c1ccc(CN(Cc2ccccn2)Cc2ccccn2)nc1)N1CCNCC1 [Example 105, (6-((bis(pyridin-2-ylmethyl)amino)methyl)pyridin-3-yl)(piperazin-1-yl)methanone]
  ASx: 1.40
  TI = IC50h/MICx: 3.2

## OC1O[C@H](Cn2cc(CN(CCN(Cc3ccccn3)Cc3ccccn3)Cc3ccccn3)nn2)[C@H](O)[C@H](O)[C@H]1O (some centres unmarked) [Example 91]
  ASx: 1.63
  TI = IC50h/MICx: 5.3

## CN[C@H](CC(C)C)C(=O)N[C@H]1C(=O)N[C@@H](CC(N)=O)C(=O)N[C@H]2C(=O)N[C@H]3C(=O)N[C@H](C(=O)N[C@H](C(=O)O)c4cc(O)cc(O)c4-c4cc3ccc4O)[C@H](O)c3ccc(c(Cl)c3)Oc3cc2cc(c3O[C@@H]2O[C@H](CO)[C@@H](O)[C@H](O)[C@H]2O[C@H]2C[C@](C)(N)[C@H](O)[C@H](C)O2)Oc2ccc(cc2Cl)[C@H]1O [Vancomycin, reference compound]
  ASx: −7.83
  TI = IC50h/MICx: 0.02

## COC(=O)c1ccc(CN(Cc2ccccn2)Cc2ccccn2)nc1 [Example 12, methyl 6-((bis(pyridin-2-ylmethyl)amino)methyl)nicotinate]
  ASx: 0.57
  TI = IC50h/MICx: 0.5

## O=C(O)C[C@@H]1CC[C@H](NC(=O)c2ccc(CN(Cc3ccccn3)Cc3ccccn3)nc2)B(O)O1 [Example 163, 2-((3R,6S)-3-(6-((Bis(pyridin-2-ylmethyl)amino)methyl)nicotinamido)-2-hydroxy-1,2-oxaborinan-6-yl)acetic acid]
  ASx: 1.35
  TI = IC50h/MICx: 3.2

## CN(C[C@H](O)[C@@H](O)[C@H](O)[C@H](O)CO)C(=O)c1ccc(CN(Cc2ccccn2)Cc2ccccn2)nc1 [Example 26, 6-((bis(pyridin-2-ylmethyl)amino)methyl)-N-methyl-N-((2S,3R,4R,5R)-2,3,4,5,6-pentahydroxyhexyl)nicotinamide]
  ASx: 1.48

## CN(C[C@H](O)[C@@H](O)[C@H](O)[C@H](O)CO)C(=O)Cc1ccc(NC(=O)c2ccc(CN(Cc3ccccn3)Cc3ccccn3)nc2)cc1 [Example 99, 6-((bis(pyridin-2-ylmethyl)amino)methyl)-N-(4-(2-(methyl((2S,3R,4R,5R)-2,3,4,5,6-pentahydroxyhexyl)amino)-2-oxoethyl)phenyl)nicotinamide]
  ASx: 1.74
  TI = IC50h/MICx: 7

## O=C(CN(CCN(Cc1ccccn1)Cc1ccccn1)Cc1ccccn1)Nc1ccc(CC(=O)NC(CO)(CO)CO)cc1 [Example 24, 2-((2-(bis(pyridin-2-ylmethyl)amino)ethyl)(pyridin-2-ylmethyl)amino)-N-(4-(2-(1,3-dihydroxy-2-(hydroxymethyl)propan-2-ylamino)-2-oxoethyl)phenyl)acetamide]
  ASx: 1.18
  TI = IC50h/MICx: 1.9

## OCc1ccc(CN(Cc2ccccn2)Cc2ccccn2)nc1 [Example 14, (6-((bis(pyridin-2-ylmethyl)amino)methyl)pyridin-3-yl) methanol]
  ASx: 0.49
  TI = IC50h/MICx: 0.4

## O=C(NC(CO)(CO)CO)c1ccc(CN(Cc2ccccn2)Cc2ccccn2)nc1 [Example 103, 6-((bis(pyridin-2-ylmethyl)amino)methyl)-N-(1,3-dihydroxy-2-(hydroxymethyl)propan-2-yl)nicotinamide]
  ASx: 1.23
  TI = IC50h/MICx: 2.2
